From patent US8394641B2, “Method of hydrolyzing an enzymatic substrate” (Advanced Liquid Logic Inc., priority 2009, dated 2013)
For at least one compound, name, drawing or mass did not settle the structure.

Columns and labels:
[1] = pK and aqueous/oil partitioning of 4-MU; type: physicochemical; conditions: low pH, 4-MU non-ionic
[2] = cited from earlier work

For `Cc1cc(=O)oc2cc(O)ccc12` [4-MU, 4-methylumbelliferone], which “partitioning from the aqueous droplet phase into the oil filler phase” value [1] is on record?
The value was 100:1.

What about the pK [2] of the same compound?
Its pK is 7.9.
